Measured values reported in the supplement of paper PMC12823440, “Inhibitors supercharge kinase turnover through native proteolytic circuits” (Nature, 2025).
Where a name gives a salt, the structure may show the parent alone. Some of the results follow. The calls rarely recur for the same compound in another form.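 Kinases, fused to nanoluciferase, were expressed in K562 cells; luminescence was measured every 4 h from 2 to 18 h as percent of control (DMSO = 100%, positive control = 0%). A time point is decreased if signal falls significantly (2 sigma). Hits were called by the authors by a rule that is not shown; the count of time points alone does not decide it.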

The chains behind the UniProt entries cited, without tags or fusion partners. Where a name states a change or a piece, a line headed by the entry shows the natural chain unless it says otherwise.
UniProt P53350, whole entry: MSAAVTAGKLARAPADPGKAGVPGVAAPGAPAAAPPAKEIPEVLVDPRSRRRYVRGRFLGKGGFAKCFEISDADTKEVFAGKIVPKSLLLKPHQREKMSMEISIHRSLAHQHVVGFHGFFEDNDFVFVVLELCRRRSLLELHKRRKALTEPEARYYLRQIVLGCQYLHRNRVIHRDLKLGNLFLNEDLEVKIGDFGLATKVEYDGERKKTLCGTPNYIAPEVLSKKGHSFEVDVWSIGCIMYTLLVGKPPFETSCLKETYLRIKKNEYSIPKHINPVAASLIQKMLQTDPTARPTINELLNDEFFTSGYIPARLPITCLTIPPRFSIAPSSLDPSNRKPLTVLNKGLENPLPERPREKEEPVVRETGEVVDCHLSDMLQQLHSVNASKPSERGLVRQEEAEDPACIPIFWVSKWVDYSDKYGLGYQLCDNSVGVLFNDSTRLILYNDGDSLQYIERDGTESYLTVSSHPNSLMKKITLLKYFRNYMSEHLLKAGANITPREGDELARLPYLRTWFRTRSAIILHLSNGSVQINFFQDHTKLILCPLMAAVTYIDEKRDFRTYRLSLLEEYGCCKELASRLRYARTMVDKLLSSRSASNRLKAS
UniProt Q05397, whole entry, looked up: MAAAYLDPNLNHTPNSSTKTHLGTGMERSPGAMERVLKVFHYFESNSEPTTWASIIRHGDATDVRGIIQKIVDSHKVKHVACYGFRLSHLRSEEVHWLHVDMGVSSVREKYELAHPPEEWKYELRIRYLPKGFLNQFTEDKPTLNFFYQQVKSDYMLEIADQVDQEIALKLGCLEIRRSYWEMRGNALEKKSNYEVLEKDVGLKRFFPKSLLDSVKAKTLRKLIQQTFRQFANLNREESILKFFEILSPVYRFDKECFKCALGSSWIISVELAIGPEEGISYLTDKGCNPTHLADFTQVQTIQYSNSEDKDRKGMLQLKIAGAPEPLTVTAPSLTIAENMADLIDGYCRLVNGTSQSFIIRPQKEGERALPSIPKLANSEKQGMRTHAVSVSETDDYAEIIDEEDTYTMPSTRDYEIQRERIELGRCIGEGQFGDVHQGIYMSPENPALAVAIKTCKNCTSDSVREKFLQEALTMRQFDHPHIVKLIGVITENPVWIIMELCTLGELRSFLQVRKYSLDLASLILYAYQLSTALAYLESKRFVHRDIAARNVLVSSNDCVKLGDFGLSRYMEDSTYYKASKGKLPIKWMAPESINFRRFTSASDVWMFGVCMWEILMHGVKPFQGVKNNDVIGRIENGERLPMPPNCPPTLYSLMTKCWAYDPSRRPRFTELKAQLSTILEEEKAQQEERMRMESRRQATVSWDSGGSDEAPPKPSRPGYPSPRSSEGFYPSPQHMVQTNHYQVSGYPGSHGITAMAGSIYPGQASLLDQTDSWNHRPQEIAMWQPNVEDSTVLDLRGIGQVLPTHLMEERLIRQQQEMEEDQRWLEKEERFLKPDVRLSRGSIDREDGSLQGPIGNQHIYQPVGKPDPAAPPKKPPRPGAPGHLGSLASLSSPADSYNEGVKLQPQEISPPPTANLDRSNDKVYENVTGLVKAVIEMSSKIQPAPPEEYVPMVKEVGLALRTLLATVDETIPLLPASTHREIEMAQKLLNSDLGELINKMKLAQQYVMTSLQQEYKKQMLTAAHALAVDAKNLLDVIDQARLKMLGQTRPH
UniProt Q14289, whole entry, looked up: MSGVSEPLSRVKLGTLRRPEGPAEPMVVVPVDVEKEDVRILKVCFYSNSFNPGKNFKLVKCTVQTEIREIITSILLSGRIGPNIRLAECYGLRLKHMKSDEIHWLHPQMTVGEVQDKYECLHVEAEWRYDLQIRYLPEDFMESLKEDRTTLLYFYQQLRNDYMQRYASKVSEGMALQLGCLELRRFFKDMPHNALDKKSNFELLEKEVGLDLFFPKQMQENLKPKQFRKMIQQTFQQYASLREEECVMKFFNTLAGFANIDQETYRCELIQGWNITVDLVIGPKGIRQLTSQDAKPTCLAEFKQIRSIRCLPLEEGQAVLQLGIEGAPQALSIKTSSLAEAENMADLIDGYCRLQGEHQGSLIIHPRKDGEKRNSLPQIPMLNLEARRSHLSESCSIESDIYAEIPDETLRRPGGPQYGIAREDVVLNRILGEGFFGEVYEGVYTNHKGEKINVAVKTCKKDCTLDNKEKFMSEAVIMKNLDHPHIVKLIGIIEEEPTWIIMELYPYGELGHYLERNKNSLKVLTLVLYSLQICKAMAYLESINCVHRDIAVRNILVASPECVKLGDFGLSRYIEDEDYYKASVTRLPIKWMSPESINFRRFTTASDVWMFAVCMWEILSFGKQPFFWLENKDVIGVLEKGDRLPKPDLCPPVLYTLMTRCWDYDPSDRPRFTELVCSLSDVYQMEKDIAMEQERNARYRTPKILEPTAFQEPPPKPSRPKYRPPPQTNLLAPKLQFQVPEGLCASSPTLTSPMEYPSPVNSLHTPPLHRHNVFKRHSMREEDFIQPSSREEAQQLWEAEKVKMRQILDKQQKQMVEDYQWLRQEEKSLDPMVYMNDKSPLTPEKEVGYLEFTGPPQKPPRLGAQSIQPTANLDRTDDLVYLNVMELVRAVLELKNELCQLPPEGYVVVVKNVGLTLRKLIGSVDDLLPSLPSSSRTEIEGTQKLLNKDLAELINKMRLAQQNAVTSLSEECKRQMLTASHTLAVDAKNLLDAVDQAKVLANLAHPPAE
UniProt P07949, whole entry, looked up: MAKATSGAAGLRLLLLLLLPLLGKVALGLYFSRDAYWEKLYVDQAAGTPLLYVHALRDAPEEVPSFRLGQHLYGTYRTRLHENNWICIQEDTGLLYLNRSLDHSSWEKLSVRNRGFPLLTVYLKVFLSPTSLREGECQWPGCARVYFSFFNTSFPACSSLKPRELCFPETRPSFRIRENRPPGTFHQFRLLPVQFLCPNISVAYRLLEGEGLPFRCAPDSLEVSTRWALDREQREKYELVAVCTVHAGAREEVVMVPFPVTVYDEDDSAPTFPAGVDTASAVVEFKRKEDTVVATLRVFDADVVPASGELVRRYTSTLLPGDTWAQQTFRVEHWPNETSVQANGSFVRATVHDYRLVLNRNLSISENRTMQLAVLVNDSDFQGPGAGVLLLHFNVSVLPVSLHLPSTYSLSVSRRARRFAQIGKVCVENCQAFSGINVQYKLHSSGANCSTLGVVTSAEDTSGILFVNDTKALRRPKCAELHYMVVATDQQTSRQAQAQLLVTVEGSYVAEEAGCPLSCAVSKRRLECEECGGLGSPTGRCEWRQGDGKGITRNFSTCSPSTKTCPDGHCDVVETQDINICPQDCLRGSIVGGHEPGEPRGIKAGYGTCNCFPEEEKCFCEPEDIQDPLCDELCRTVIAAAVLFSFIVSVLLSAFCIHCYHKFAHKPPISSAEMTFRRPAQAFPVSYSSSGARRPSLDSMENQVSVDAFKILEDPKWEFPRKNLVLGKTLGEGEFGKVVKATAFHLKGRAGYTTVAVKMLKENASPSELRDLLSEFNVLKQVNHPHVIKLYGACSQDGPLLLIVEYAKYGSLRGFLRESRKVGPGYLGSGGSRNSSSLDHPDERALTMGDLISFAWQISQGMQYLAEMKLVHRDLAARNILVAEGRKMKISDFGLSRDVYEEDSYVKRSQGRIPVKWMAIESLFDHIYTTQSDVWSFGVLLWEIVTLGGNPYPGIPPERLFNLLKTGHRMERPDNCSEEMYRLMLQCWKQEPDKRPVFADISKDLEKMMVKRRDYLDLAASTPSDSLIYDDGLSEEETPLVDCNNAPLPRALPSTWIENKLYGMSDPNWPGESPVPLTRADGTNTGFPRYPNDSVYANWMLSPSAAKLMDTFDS
UniProt P07949, whole entry M918T, looked up: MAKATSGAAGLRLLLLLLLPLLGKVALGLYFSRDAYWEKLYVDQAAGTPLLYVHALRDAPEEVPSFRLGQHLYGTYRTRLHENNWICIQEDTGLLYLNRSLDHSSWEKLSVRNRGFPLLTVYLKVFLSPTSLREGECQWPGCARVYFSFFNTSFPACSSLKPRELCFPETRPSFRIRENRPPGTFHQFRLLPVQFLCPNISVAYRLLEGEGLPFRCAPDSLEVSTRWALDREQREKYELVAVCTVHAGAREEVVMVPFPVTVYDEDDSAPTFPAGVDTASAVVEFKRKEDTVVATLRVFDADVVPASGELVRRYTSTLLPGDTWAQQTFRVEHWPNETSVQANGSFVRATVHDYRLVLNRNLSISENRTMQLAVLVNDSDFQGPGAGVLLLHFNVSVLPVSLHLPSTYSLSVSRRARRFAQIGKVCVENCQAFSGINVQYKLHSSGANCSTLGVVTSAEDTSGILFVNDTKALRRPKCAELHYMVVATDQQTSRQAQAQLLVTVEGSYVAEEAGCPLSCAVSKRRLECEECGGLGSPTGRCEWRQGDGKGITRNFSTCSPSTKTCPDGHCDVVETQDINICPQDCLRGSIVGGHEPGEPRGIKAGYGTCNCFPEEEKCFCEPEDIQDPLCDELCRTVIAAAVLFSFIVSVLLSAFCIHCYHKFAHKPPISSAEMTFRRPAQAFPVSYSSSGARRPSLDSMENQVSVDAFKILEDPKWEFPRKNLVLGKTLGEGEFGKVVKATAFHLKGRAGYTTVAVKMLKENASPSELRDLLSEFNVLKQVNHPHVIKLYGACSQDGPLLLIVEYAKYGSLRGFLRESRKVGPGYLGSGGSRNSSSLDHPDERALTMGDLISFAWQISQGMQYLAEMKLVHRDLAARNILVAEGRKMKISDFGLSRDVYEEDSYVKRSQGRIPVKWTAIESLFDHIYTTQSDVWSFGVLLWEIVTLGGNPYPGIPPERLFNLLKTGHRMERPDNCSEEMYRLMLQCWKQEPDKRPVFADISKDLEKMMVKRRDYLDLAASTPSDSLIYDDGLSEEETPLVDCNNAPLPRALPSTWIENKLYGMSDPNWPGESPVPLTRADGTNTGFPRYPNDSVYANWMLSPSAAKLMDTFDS
UniProt Q13546: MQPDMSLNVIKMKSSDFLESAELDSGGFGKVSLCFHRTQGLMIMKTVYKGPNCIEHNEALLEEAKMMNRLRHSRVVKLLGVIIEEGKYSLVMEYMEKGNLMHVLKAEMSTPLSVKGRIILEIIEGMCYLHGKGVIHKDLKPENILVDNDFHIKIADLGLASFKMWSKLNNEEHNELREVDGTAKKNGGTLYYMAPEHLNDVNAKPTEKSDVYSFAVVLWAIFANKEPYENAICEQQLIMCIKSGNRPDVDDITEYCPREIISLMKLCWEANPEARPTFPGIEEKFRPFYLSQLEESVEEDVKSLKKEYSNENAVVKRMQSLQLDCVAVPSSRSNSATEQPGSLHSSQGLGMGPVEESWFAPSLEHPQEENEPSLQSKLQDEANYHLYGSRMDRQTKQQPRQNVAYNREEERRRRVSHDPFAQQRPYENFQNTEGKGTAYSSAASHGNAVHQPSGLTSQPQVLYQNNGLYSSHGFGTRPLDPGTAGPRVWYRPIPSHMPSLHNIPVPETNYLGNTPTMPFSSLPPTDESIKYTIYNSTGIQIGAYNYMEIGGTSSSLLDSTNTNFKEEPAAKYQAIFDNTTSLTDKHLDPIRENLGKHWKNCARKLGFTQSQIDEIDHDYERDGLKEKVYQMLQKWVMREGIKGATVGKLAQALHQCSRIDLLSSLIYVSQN
UniProt Q01974, whole entry: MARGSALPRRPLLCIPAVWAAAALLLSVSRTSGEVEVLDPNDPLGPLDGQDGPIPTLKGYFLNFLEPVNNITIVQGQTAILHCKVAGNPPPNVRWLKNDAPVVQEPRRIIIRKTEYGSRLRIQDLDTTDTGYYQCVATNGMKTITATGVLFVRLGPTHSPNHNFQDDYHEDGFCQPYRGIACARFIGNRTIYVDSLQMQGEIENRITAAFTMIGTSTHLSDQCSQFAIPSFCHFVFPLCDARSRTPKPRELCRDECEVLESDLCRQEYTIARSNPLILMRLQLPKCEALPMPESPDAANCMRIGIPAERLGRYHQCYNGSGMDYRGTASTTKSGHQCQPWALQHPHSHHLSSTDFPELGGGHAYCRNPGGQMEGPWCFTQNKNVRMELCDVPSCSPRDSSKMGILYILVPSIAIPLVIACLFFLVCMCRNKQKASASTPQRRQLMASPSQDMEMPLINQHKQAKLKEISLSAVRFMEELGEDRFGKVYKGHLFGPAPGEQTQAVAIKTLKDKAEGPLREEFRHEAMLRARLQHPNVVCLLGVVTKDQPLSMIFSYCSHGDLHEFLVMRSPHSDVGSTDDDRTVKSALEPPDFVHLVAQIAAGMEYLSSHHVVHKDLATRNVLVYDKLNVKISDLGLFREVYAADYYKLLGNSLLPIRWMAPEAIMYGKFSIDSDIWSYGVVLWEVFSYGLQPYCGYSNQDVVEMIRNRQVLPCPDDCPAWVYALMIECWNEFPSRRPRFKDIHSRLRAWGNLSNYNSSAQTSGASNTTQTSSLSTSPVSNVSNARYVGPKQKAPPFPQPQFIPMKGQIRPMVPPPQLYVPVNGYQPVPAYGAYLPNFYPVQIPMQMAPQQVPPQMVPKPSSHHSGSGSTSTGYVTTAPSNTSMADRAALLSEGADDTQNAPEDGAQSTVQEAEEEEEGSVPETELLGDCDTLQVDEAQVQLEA

Assays:
Assay in all cases: kinase-Nluc reporter destabilization hit call (1 = scored as downregulated) (binary); higher = compound decreases kinase abundance
Settings in all cases: K562; 2-18 h
PDPK1 = PDPK1 (UniProt O15530)
PIK4CA = PIK4CA (UniProt P42356)
PIK4CB = PIK4CB (UniProt Q9UBF8)
PLK1 = PLK1 (UniProt P53350)
PRKAA1 = PRKAA1 (UniProt Q13131)
PRKCA = PRKCA (UniProt P17252)
PTK2 = PTK2 (UniProt Q05397)
PTK2B = PTK2B (UniProt Q14289)
RAF1 = RAF1 (UniProt P04049)
[1] = molecular target: RAF1_S257L (clone: RAF1_mut) (UniProt P04049)
RET = RET (UniProt P07949)
[2] = molecular target: RET_M918T (clone: RET_mut) (UniProt P07949)
RIOK1 = RIOK1 (UniProt Q9BRS2)
RIPK1 = RIPK1 (UniProt Q13546)
RIPK2 = RIPK2 (UniProt O43353)
ROR2 = ROR2 (UniProt Q01974)
RPS6KA1 = RPS6KA1 (UniProt Q15418)
SPHK1 = SPHK1 (UniProt Q9NYA1)
SRC = SRC (UniProt P12931)
STK24 = STK24 (UniProt Q9Y6E0)

Measured: kinase-Nluc reporter destabilization hit call

CC(C)CCNC(=O)c1ccc2c(c1)nc(Nc1n[nH]c3ccc(-c4ccccc4OC(F)(F)F)cc13)n2C1CCC(O)CC1 (stereo not drawn) [IRAK inhibitor 4 (trans)] (10 µM)
inactive: PDPK1 = 0 | PIK4CA 0 | PIK4CB 0 | PLK1 = 0 | PRKAA1 = 0 | PRKCA 0 | PTK2 = 0 | PTK2B 0 | RAF1 = 0 | [1] 0 | RET 0 | [2] 0 | RIOK1 = 0 | RIPK1 = 0 | RIPK2 = 0 | ROR2 = 0 | RPS6KA1 = 0 | SPHK1 = 0 | SRC 0 | STK24 = 0

Cc1cnc(NC2CCOCC2)nc1-n1cnc(C(=O)N[C@H](CN)c2cc(F)cc(Cl)c2)c1 (10 µM)
inactive: PDPK1 = 0 | PIK4CA 0 | PIK4CB 0 | PLK1 = 0 | PRKAA1 = 0 | PRKCA 0 | PTK2 = 0 | PTK2B 0 | RAF1 = 0 | [1] 0 | RET 0 | [2] 0 | RIOK1 = 0 | RIPK1 = 0 | RIPK2 = 0 | ROR2 = 0 | RPS6KA1 = 0 | SPHK1 = 0 | SRC 0 | STK24 = 0

COc1ccc(/C=C/C(=O)C2(C(=O)/C=C/c3ccc(OC)c(OC)c3)CCCCC2)cc1OC (2.5 µM)
inactive: PDPK1 = 0 | PIK4CA 0 | PIK4CB 0 | PLK1 = 0 | PRKAA1 = 0 | PRKCA 0 | PTK2 = 0 | PTK2B 0 | RAF1 = 0 | [1] 0 | RET 0 | [2] 0 | RIOK1 = 0 | RIPK1 = 0 | RIPK2 = 0 | ROR2 = 0 | RPS6KA1 = 0 | SPHK1 = 0 | SRC 0 | STK24 = 0

CNC(=O)c1ccccc1Nc1nc(Nc2ccc3c(c2OC)CCC[C@H](N2CCN(CCO)CC2)C3)ncc1Cl (10 µM)
inactive: PDPK1 = 0 | PIK4CA 0 | PIK4CB 0 | PLK1 = 0 | PRKAA1 = 0 | PRKCA 0 | PTK2 = 0 | PTK2B 0 | RAF1 = 0 | [1] 0 | RET 0 | [2] 0 | RIOK1 = 0 | RIPK1 = 0 | RIPK2 = 0 | ROR2 = 0 | RPS6KA1 = 0 | SPHK1 = 0 | SRC 0 | STK24 = 0

N[C@@H](CCC(=O)O)C(=O)N[C@@H](Cc1c[nH]c2ccccc12)C(=O)O [Oglufanide] (10 µM)
inactive: PDPK1 = 0 | PIK4CA 0 | PIK4CB 0 | PLK1 = 0 | PRKAA1 = 0 | PRKCA 0 | PTK2 = 0 | PTK2B 0 | RAF1 = 0 | [1] 0 | RET 0 | [2] 0 | RIOK1 = 0 | RIPK1 = 0 | RIPK2 = 0 | ROR2 = 0 | RPS6KA1 = 0 | SPHK1 = 0 | SRC 0 | STK24 = 0

NC1=NCCN1CC(=O)O [Cyclocreatine] (10 µM)
inactive: PDPK1 = 0 | PIK4CA 0 | PIK4CB 0 | PLK1 = 0 | PRKAA1 = 0 | PRKCA 0 | PTK2 = 0 | PTK2B 0 | RAF1 = 0 | [1] 0 | RET 0 | [2] 0 | RIOK1 = 0 | RIPK1 = 0 | RIPK2 = 0 | ROR2 = 0 | RPS6KA1 = 0 | SPHK1 = 0 | SRC 0 | STK24 = 0

NC(=S)n1[nH]c(-c2ccc([N+](=O)[O-])cc2)c(N=Nc2cccc(Cl)c2)c1=O (2.5 µM)
inactive: PDPK1 = 0 | PIK4CA 0 | PIK4CB 0 | PLK1 = 0 | PRKAA1 = 0 | PRKCA 0 | PTK2 = 0 | PTK2B 0 | RAF1 = 0 | [1] 0 | RET 0 | [2] 0 | RIOK1 = 0 | RIPK1 = 0 | RIPK2 = 0 | ROR2 = 0 | RPS6KA1 = 0 | SPHK1 = 0 | SRC 0 | STK24 = 0

COc1nn(C)cc1Nc1nccc(-c2c[nH]c3c(NC(=O)[C@@H](C)N4CCN(C)CC4)cccc23)n1 (10 µM)
inactive: PDPK1 = 0 | PIK4CA 0 | PIK4CB 0 | PLK1 = 0 | PRKAA1 = 0 | PRKCA 0 | PTK2 = 0 | PTK2B 0 | RAF1 = 0 | [1] 0 | RET 0 | [2] 0 | RIOK1 = 0 | RIPK1 = 0 | RIPK2 = 0 | ROR2 = 0 | RPS6KA1 = 0 | SPHK1 = 0 | SRC 0 | STK24 = 0

CNC(=O)c1cc2c(Oc3ccc(NC(=S)NC(=O)Cc4ccccc4)cc3F)ccnc2cc1OC [TAS-115 mesylate] (10 µM)
inactive: PDPK1 = 0 | PIK4CA 0 | PIK4CB 0 | PLK1 = 0 | PRKAA1 = 0 | PRKCA 0 | PTK2 = 0 | PTK2B 0 | RAF1 = 0 | [1] 0 | RET 0 | [2] 0 | RIOK1 = 0 | RIPK1 = 0 | RIPK2 = 0 | ROR2 = 0 | RPS6KA1 = 0 | SPHK1 = 0 | SRC 0 | STK24 = 0

CCCCCCCC/C=C\CCCCCCCCCCCC(=O)O [Erucic acid] (10 µM)
inactive: PDPK1 = 0 | PIK4CA 0 | PIK4CB 0 | PLK1 = 0 | PRKAA1 = 0 | PRKCA 0 | PTK2 = 0 | PTK2B 0 | RAF1 = 0 | [1] 0 | RET 0 | [2] 0 | RIOK1 = 0 | RIPK1 = 0 | RIPK2 = 0 | ROR2 = 0 | RPS6KA1 = 0 | SPHK1 = 0 | SRC 0 | STK24 = 0

O=C(O)c1cc(N(Cc2ccccc2O)Cc2ccccc2O)ccc1O [Lavendustin B] (10 µM)
inactive: PDPK1 = 0 | PIK4CA 0 | PIK4CB 0 | PLK1 = 0 | PRKAA1 = 0 | PRKCA 0 | PTK2 = 0 | PTK2B 0 | RAF1 = 0 | [1] 0 | RET 0 | [2] 0 | RIOK1 = 0 | RIPK1 = 0 | RIPK2 = 0 | ROR2 = 0 | RPS6KA1 = 0 | SPHK1 = 0 | SRC 0 | STK24 = 0

C=CC(=O)N1CCC[C@H](n2c(=O)n(-c3ccc(Oc4ccccc4)cc3)c3c(N)ncnc32)C1 [ONO-4059 (analog)] (10 µM)
inactive: PDPK1 = 0 | PIK4CA 0 | PIK4CB 0 | PLK1 = 0 | PRKAA1 = 0 | PRKCA 0 | PTK2 = 0 | PTK2B 0 | RAF1 = 0 | [1] 0 | RET 0 | [2] 0 | RIOK1 = 0 | RIPK1 = 0 | RIPK2 = 0 | ROR2 = 0 | RPS6KA1 = 0 | SPHK1 = 0 | SRC 0 | STK24 = 0

C=CCc1ccc(O)c(-c2ccc(O)c(CC=C)c2)c1 [Honokiol] (10 µM)
inactive: PDPK1 = 0 | PIK4CA 0 | PIK4CB 0 | PLK1 = 0 | PRKAA1 = 0 | PRKCA 0 | PTK2 = 0 | PTK2B 0 | RAF1 = 0 | [1] 0 | RET 0 | [2] 0 | RIOK1 = 0 | RIPK1 = 0 | RIPK2 = 0 | ROR2 = 0 | RPS6KA1 = 0 | SPHK1 = 0 | SRC 0 | STK24 = 0

N#Cc1ccnc(Nc2cc(C3CCN(C4COC4)CC3)cc(N3CCC(F)(F)C3)n2)c1 (2.5 µM)
inactive: PDPK1 = 0 | PIK4CA 0 | PIK4CB 0 | PLK1 = 0 | PRKAA1 = 0 | PRKCA 0 | PTK2 = 0 | PTK2B 0 | RAF1 = 0 | [1] 0 | RET 0 | [2] 0 | RIOK1 = 0 | RIPK1 = 0 | RIPK2 = 0 | ROR2 = 0 | RPS6KA1 = 0 | SPHK1 = 0 | SRC 0 | STK24 = 0

Cn1cnc([N+](=O)[O-])c1C[N+](C)(C)C/C=C/C(=O)Nc1cc2c(Nc3ccc(Cl)c(Br)c3)ncnc2cn1 [Tarloxotinib (bromide)] (10 µM)
inactive: PDPK1 = 0 | PIK4CA 0 | PIK4CB 0 | PLK1 = 0 | PRKAA1 = 0 | PRKCA 0 | PTK2 = 0 | PTK2B 0 | RAF1 = 0 | [1] 0 | RET 0 | [2] 0 | RIOK1 = 0 | RIPK1 = 0 | RIPK2 = 0 | ROR2 = 0 | RPS6KA1 = 0 | SPHK1 = 0 | SRC 0 | STK24 = 0

Three structures already listed, ordered by SMILES length, low to high.
C=CCc1ccc(O)c(-c2ccc(O)c(CC=C)c2)c1 [Honokiol] (10 µM)
inactive: PDPK1 = 0 | PIK4CA 0 | PIK4CB 0 | PLK1 = 0 | PRKAA1 = 0 | PRKCA 0 | PTK2 = 0 | PTK2B 0 | RAF1 = 0 | [1] 0 | RET 0 | [2] 0 | RIOK1 = 0 | RIPK1 = 0 | RIPK2 = 0 | ROR2 = 0 | RPS6KA1 = 0 | SPHK1 = 0 | SRC 0 | STK24 = 0

N#Cc1ccnc(Nc2cc(C3CCN(C4COC4)CC3)cc(N3CCC(F)(F)C3)n2)c1 (2.5 µM)
inactive: PDPK1 = 0 | PIK4CA 0 | PIK4CB 0 | PLK1 = 0 | PRKAA1 = 0 | PRKCA 0 | PTK2 = 0 | PTK2B 0 | RAF1 = 0 | [1] 0 | RET 0 | [2] 0 | RIOK1 = 0 | RIPK1 = 0 | RIPK2 = 0 | ROR2 = 0 | RPS6KA1 = 0 | SPHK1 = 0 | SRC 0 | STK24 = 0

C=CC(=O)N1CCC[C@H](n2c(=O)n(-c3ccc(Oc4ccccc4)cc3)c3c(N)ncnc32)C1 [ONO-4059 (analog)] (10 µM)
inactive: PDPK1 = 0 | PIK4CA 0 | PIK4CB 0 | PLK1 = 0 | PRKAA1 = 0 | PRKCA 0 | PTK2 = 0 | PTK2B 0 | RAF1 = 0 | [1] 0 | RET 0 | [2] 0 | RIOK1 = 0 | RIPK1 = 0 | RIPK2 = 0 | ROR2 = 0 | RPS6KA1 = 0 | SPHK1 = 0 | SRC 0 | STK24 = 0

Following part.

COc1ccc2cc(-c3nc(-c4ccc([S+](C)[O-])cc4)[nH]c3-c3ccncc3)ccc2c1 (stereo not given) [Tie2 kinase inhibitor 1] (2.5 µM)
inactive: PDPK1 = 0 | PIK4CA 0 | PIK4CB 0 | PLK1 = 0 | PRKAA1 = 0 | PRKCA 0 | PTK2 = 0 | PTK2B 0 | RAF1 = 0 | [1] 0 | RET 0 | [2] 0 | RIOK1 = 0 | RIPK1 = 0 | RIPK2 = 0 | ROR2 = 0 | RPS6KA1 = 0 | SPHK1 = 0 | SRC 0 | STK24 = 0

Nc1ncnc2c1c(-c1ccc(Oc3ccccc3)cc1)nn2C1CCN(CCOCCOCCOc2ccc3c(c2)CN(C2CCC(=O)NC2=O)C3=O)CC1 (stereo not given) (2.5 µM)
inactive: PDPK1 = 0 | PIK4CA 0 | PIK4CB 0 | PLK1 = 0 | PRKAA1 = 0 | PRKCA 0 | PTK2 = 0 | PTK2B 0 | RAF1 = 0 | [1] 0 | RET 0 | [2] 0 | RIOK1 = 0 | RIPK1 = 0 | RIPK2 = 0 | ROR2 = 0 | RPS6KA1 = 0 | SPHK1 = 0 | SRC 0 | STK24 = 0

Cc1cc(Nc2ncnc3ccc(-c4ccc(CNCCS(C)(=O)=O)o4)cc23)ccc1Oc1ccn2ncnc2c1 [ARRY-380 (analog )] (2.5 µM)
inactive: PDPK1 = 0 | PIK4CA 0 | PIK4CB 0 | PLK1 = 0 | PRKAA1 = 0 | PRKCA 0 | PTK2 = 0 | PTK2B 0 | RAF1 = 0 | [1] 0 | RET 0 | [2] 0 | RIOK1 = 0 | RIPK1 = 0 | RIPK2 = 0 | ROR2 = 0 | RPS6KA1 = 0 | SPHK1 = 0 | SRC 0 | STK24 = 0
